US9776963B2, “Small molecule CD4 mimetics and uses thereof” (priority 2008, dated 2017)
Some of these results come from one statement about several compounds together.

Tested on: viruses with the S375A envelope glycoproteins
Format: cell-based, HIV-1
Conditions: Cf2Th-CD4/CCR5 cells

Compound	IC50 [µM]
CC1(C)CC(NC(=O)C(=O)Nc2ccc(Cl)c(F)c2)CC(C)(C)N1 [Compound II, N1-(4-Chloro-3-fluorophenyl)-N2-(2,2,6,6-tetramethylpiperidin-4-yl)oxalamide]	10 to 20
NBD-556	10 to 20
